Results: PMC4753449, “Conformational plasticity of RepB, the replication initiator protein of promiscuous streptococcal plasmid pMV158” (Scientific Reports, 2016)
No constants are given. Whether binding was seen depends on the method and setting. Some entries that bind do so weakly or less than the wild type. Each block holds one binder with its values, some of them ahead of it.

Key:
[1] = molecular target: RepB, rolling-circle replication initiator protein of plasmid pMV158 (hexamer) (plasmid pMV158, originally isolated from Streptococcus agalactiae) (UniProt P13921); assay: AUC; RepB6 with metal ions present or absent; data not shown; both purified
[2] = molecular target: RepB, rolling-circle replication initiator protein of plasmid pMV158 (hexamer) (plasmid pMV158, originally isolated from Streptococcus agalactiae) (UniProt P13921); assay: crystal structure; C2 crystal form of RepB6 co-crystallised with Ba2+; 50 mM TRIS pH 8.5, 100 mM BaCl2, 12% PEG 8K; data to 3.8 Å; both purified
[3] = molecular target: RepB OBD (origin binding domain, residues 1 to 132) (plasmid pMV158, originally isolated from Streptococcus agalactiae) (UniProt P13921); assay: AUC; sedimentation velocity, 48,000 rpm, 20 °C, 20 mM NaH2PO4 pH 7.0, 150 mM NaCl; OBD 10-60 μM, OD 10-100 μM; both purified
[4] = molecular target: RepB OBD (origin binding domain, residues 1 to 132) (plasmid pMV158, originally isolated from Streptococcus agalactiae) (UniProt P13921); assay: AUC; sedimentation equilibrium, 20 °C, 20 mM NaH2PO4 pH 7.0, 150 mM NaCl; OBD 10-60 μM at 22,000 rpm, OD 10-100 μM at 13,000 rpm; single-species model; both purified

binding [1]: binds | binding [2]: binds
B1: RepB, rolling-circle replication initiator protein of plasmid pMV158 (hexamer) (natural protein, UniProt P13921 1-210, looked up)
chain: MAKEKARYFTFLLYPESIPSDWELKLETLGVPMAISPLHDKDKSSIKGQKYKKAHYHVLYIAKNPVTADSVRKKIKLLLGEKSLAMVQVVLNVENMYLYLTHESKDAIAKKKHVYDKADIKLINNFDIDRYVTLDVEEKTELFNVVVSLIRAYTLQNIFDLYDFIDENGETYGLTINLVNEVIAGKTGFMKLLFDGAYQRSKRGTKNEER
notes: RepB, replication initiator protein encoded by the promiscuous plasmid pMV158, originally isolated from Streptococcus agalactiae; 24 kDa polypeptide; OBD (N-terminal) and OD (C-terminal) domains; the OD construct ends at residue 210; The final model of 4U87 comprises residues 3-204 of three protomers in the asymmetric unit; also called RepB6; RepB hexamer

binding [3]: no binding (tested: 10–60 μM) | binding [4]: no binding (tested: 10–60 μM)
B2: RepB OBD (origin binding domain, residues 1 to 132) (domain or fragment, UniProt P13921 1-132)
chain: MAKEKARYFTFLLYPESIPSDWELKLETLGVPMAISPLHDKDKSSIKGQKYKKAHYHVLYIAKNPVTADSVRKKIKLLLGEKSLAMVQVVLNVENMYLYLTHESKDAIAKKKHVYDKADIKLINNFDIDRYV
